In the supplement of paper PMC10849652:
The other results are listed elsewhere or left out.

By UniProt entry, the sequences of proteins in these tests, tags left out. Where a name states a change or a piece, a line headed by the entry shows the natural chain unless it says otherwise.
UniProt Q6NW29: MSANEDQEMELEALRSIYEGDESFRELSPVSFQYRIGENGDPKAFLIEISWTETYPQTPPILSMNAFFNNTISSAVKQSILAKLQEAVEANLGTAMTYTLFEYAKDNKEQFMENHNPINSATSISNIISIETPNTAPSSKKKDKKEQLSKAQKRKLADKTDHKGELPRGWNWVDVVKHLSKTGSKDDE
UniProt O95197: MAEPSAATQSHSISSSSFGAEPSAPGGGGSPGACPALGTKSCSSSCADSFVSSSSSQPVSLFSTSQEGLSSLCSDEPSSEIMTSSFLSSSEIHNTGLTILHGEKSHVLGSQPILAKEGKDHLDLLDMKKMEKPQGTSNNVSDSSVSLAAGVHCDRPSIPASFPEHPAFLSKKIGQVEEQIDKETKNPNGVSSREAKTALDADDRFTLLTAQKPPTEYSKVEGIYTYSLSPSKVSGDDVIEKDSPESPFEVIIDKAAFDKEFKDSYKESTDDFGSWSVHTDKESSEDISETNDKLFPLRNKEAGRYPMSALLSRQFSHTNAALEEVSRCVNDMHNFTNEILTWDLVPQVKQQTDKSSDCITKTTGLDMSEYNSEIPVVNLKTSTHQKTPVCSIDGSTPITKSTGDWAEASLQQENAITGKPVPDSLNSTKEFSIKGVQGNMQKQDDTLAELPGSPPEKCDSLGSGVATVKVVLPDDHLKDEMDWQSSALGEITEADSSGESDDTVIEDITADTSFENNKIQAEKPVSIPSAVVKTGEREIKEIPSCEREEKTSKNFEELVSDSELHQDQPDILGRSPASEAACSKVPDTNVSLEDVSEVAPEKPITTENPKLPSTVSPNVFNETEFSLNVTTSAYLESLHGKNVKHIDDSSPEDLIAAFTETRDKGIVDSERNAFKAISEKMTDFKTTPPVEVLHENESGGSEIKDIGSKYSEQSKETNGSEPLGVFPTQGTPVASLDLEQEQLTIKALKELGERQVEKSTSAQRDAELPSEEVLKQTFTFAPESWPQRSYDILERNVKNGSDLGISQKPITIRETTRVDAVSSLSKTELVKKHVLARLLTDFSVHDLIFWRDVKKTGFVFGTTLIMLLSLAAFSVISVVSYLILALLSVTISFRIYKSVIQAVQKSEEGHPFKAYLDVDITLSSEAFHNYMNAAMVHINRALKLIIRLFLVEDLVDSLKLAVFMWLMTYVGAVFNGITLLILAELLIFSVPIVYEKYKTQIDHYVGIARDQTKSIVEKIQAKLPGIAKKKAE
UniProt O75298: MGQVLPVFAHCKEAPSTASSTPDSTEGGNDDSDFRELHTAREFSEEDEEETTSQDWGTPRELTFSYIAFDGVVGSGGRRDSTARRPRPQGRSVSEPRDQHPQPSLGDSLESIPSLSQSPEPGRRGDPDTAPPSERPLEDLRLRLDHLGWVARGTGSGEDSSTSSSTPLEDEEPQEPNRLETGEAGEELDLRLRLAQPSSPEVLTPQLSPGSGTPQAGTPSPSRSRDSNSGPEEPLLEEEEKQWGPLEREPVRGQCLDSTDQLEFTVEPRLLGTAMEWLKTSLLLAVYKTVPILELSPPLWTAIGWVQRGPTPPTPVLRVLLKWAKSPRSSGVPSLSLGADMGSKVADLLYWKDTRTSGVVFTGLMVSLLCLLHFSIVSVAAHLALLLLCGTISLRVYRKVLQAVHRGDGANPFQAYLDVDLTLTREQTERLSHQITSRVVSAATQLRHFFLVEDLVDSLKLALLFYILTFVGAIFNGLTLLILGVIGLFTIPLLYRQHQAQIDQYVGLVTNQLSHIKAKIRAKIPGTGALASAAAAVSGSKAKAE
UniProt Q5VWQ0: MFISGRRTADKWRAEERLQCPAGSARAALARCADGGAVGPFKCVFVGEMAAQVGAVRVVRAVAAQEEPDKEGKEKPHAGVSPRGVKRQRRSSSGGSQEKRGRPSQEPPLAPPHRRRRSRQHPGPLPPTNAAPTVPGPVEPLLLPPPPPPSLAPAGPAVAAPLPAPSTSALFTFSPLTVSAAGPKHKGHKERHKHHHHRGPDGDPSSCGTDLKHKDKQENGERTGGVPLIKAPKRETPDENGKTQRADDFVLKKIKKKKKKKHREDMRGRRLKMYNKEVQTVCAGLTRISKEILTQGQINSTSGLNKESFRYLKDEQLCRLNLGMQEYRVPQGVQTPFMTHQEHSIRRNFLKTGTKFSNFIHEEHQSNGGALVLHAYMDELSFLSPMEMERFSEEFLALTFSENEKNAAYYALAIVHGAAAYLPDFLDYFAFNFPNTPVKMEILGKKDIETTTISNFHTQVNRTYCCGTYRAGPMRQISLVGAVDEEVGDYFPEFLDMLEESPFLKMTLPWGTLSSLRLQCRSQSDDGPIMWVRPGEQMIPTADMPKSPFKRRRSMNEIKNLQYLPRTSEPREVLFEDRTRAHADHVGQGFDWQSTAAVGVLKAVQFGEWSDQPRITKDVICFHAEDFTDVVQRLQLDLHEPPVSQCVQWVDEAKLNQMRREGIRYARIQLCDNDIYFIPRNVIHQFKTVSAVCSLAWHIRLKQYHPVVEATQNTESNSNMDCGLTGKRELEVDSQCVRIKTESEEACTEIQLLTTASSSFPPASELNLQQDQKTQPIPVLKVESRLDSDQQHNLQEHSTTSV
UniProt Q9Y3B9: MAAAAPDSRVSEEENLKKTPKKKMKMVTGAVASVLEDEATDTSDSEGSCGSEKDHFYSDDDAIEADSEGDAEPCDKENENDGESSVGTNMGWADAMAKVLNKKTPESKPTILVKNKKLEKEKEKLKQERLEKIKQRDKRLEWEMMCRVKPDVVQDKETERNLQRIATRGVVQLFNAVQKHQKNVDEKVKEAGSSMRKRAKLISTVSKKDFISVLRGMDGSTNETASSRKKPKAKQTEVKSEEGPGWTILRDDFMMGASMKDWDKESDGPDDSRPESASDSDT
UniProt P04844: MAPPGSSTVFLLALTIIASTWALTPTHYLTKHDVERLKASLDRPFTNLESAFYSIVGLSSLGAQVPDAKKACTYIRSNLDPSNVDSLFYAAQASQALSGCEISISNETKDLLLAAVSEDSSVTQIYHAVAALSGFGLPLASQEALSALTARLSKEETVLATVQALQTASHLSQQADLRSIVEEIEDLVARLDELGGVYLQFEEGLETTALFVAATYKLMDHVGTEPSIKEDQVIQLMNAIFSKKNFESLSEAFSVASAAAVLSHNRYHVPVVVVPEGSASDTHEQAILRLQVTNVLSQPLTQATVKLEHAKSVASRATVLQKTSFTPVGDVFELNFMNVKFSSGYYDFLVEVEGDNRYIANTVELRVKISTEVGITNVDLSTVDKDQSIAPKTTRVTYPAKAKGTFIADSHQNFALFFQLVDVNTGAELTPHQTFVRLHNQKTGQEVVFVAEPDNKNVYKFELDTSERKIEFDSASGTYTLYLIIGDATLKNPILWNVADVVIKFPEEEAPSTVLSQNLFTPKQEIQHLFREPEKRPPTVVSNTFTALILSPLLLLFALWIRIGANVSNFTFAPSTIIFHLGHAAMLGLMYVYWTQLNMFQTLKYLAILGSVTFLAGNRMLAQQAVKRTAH
UniProt O43818: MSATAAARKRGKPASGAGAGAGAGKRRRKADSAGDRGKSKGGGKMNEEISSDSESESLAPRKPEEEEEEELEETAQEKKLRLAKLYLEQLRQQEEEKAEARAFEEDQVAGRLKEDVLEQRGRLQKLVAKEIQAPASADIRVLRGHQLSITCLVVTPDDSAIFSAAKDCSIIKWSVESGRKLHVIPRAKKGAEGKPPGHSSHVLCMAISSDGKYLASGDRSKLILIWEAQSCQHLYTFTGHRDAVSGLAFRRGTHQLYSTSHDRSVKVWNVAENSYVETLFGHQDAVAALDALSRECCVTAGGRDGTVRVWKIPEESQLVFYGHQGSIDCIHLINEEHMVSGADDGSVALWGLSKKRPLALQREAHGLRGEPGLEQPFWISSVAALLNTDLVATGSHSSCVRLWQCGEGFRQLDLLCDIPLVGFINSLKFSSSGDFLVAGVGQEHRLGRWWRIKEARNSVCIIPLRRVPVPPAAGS

What was measured:
Assay in all cases: log2 fold change, soluble protein after heating vs DMSO (PISA); higher = thermal stabilisation; K562 lysate, 10 uM; active = over 0.2 and 3.5 SD of the protein, either way, in both replicates (recomputed)
[1] = compound: CCCS(=O)(=O)Nc1ccc(F)c(C(=O)c2c[nH]c3ncc(-c4ccc(Cl)cc4)cc23)c1F [vemurafenib]
Method in brief: (§1)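 Values give the log-two fold change in thermal stability against solvent controls, from duplicates. Crude K562 extract at 1 mg/mL protein, made by dounce homogenisation in PBS pH 7.4 with 1 mM MgCl2, was treated with 10 μM compound for 30 min. After 3 min heating across 48°C-58°C, aliquots were pooled, adjusted to 0.5% NP-40 at 4°C and centrifuged at 21,000xg for 90 min. The supernatant was measured by TMTpro 16plex LC-MS/MS with channel sums equalised.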

[2] = compound: CCCS(=O)(=O)Nc1ccc(F)c(C(=O)c2c[nH]c3ncc(Cl)cc23)c1F
Method in brief: as §1

[3] = compound: CCN(CCCOc1ccc2c(Nc3cc(CC(=O)Nc4cccc(F)c4)[nH]n3)ncnc2c1)CCOP(=O)(O)O [barasertib]
Method in brief: as §1

[4] = compound: CC[C@@H]1C(=O)N(C)c2cnc(Nc3ccc(C(=O)NC4CCN(C)CC4)cc3OC)nc2N1C1CCCC1
Method in brief: as §1

[5] = compound: CC[C@@H]1C(=O)N(C)c2cnc(Nc3ccc(C(=O)N[C@H]4CC[C@H](N5CCN(CC6CC6)CC5)CC4)cc3OC)nc2N1C(C)C [volasertib]
Method in brief: as §1

[6] = compound: CCn1c(C(=O)N(C2CC2)C2CC2)cc2c3c(ncn3C)c(Nc3cc(C)n(C)n3)nc21
Method in brief: as §1

[7] = compound: CCn1cc(-c2ccnc3[nH]c(-c4cccc(CN(C)C)c4)cc23)c(-c2ccc(NC(=O)N(C)C)cc2)n1
Method in brief: as §1

[8] = compound: CN1CCC(CNc2ccc3ncc(-c4cccc(OC(F)(F)F)c4)n3n2)CC1
Method in brief: as §1

[9] = compound: CN1CCN(CCOc2cc(OC3CCOCC3)c3c(Nc4c(Cl)ccc5c4OCO5)ncnc3c2)CC1 [saracatinib]
Method in brief: as §1

[10] = compound: CN1CCN(c2nc(C3=C(c4c[nH]c5ccccc45)C(=O)NC3=O)c3ccccc3n2)CC1 [sotrastaurin]
Method in brief: as §1

[11] = compound: CN1CC[C@H](c2c(O)cc(O)c3c(=O)cc(-c4ccccc4Cl)oc23)[C@H](O)C1 [alvocidib]
Method in brief: as §1

[12] = compound: CN1CCc2c(c3ccccc3n2Cc2ccc(C(=O)NO)cc2)C1 [Tubastatin A]
Method in brief: as §1

[13] = compound: CNC(=O)C1=CC=CC=C1NC2=NC(=NC=C2Cl)NC3=C(C=C(C=C3)N4CCOCC4)OC
Method in brief: as §1

[14] = compound: CNC(=O)c1ccc(Nc2ncc(C(F)(F)F)c(NCc3nccnc3N(C)S(C)(=O)=O)n2)cc1 [defactinib]
Method in brief: as §1

[15] = compound: CNc1nc(-c2ccc3c(N)n[nH]c3c2)cc(N2C[C@@H](C(=O)NC3CCCCC3)CC[C@H]2C)n1
Method in brief: as §1

[16] = compound: COC(=O)N[C@@H](C)CNc1nccc(-c2cn(C(C)C)nc2-c2cc(Cl)cc(NS(C)(=O)=O)c2F)n1 [encorafenib]
Method in brief: as §1

[17] = compound: COC(=O)[C@H](CCSC)NC(=O)C1=C(C=C(C=C1)NC[C@H](CS)N)C2=CC=CC=C2
Method in brief: as §1

[18] = compound: COc1cc(Nc2ncc3c(n2)-c2ccc(Cl)cc2C(c2c(F)cccc2OC)=NC3)ccc1C(=O)O [alisertib]
Method in brief: as §1

[19] = compound: COc1cc2nc(-c3cc(F)ccc3O)nc(N[C@@H]3CNC[C@H]3C(C)(C)O)c2cc1OC
Method in brief: as §1

[20] = compound: COc1cc2ncnc(Nc3ccc(F)c(Cl)c3)c2cc1OCCCN1CCOCC1 [gefitinib]
Method in brief: as §1

Measured: log2 fold change

RPL6 (UniProt Q02878)
inactive: [1] -0.016 | [2] 0.003 | [3] -0.01 | [4] -0.024 | [5] -0.009 | [6] 0.007 | [7] -0.004 | [8] -0.023 | [9] -0.015 | [10] -0.003 | [11] 0.046 | [12] 0.005 | [13] 0.001 | [14] -0.017 | [15] 0.027 | [16] -0.014 | [17] 0.008 | [18] 0.016 | [19] -0.002 | [20] -0.06

RPL9 (UniProt P32969)
inactive: [1] -0.011 | [2] 0.007 | [3] -0.027 | [4] -0.005 | [5] 0.003 | [6] -0.039 | [7] 0.028 | [8] -0.055 | [9] -0.001 | [10] -0.049 | [11] 0.02 | [12] -0.02 | [13] 0.007 | [14] 0.033 | [15] 0.025 | [16] 0.034 | [17] 0.034 | [18] 0.014 | [19] -0.014 | [20] -0.05

RPS16 (UniProt P62249)
inactive: [1] -0.053 | [2] -0.017 | [3] -0.004 | [4] -0.047 | [5] -0.002 | [6] 0.053 | [7] 0.157 | [8] -0.073 | [9] 0.033 | [10] -0.001 | [11] 0.035 | [12] -0.169 | [13] -0.032 | [14] 0.012 | [15] -0.014 | [16] 0.004 | [17] 0.032 | [18] 0.027 | [19] -0.013 | [20] -0.018

Two successive records out of the list so far, for reference:
RPL9 (UniProt P32969)
inactive: [1] -0.011 | [2] 0.007 | [3] -0.027 | [4] -0.005 | [5] 0.003 | [6] -0.039 | [7] 0.028 | [8] -0.055 | [9] -0.001 | [10] -0.049 | [11] 0.02 | [12] -0.02 | [13] 0.007 | [14] 0.033 | [15] 0.025 | [16] 0.034 | [17] 0.034 | [18] 0.014 | [19] -0.014 | [20] -0.05

RPS16 (UniProt P62249)
inactive: [1] -0.053 | [2] -0.017 | [3] -0.004 | [4] -0.047 | [5] -0.002 | [6] 0.053 | [7] 0.157 | [8] -0.073 | [9] 0.033 | [10] -0.001 | [11] 0.035 | [12] -0.169 | [13] -0.032 | [14] 0.012 | [15] -0.014 | [16] 0.004 | [17] 0.032 | [18] 0.027 | [19] -0.013 | [20] -0.018

Following part:

RWDD4 (UniProt Q6NW29)
inactive: [1] -0.028 | [2] 0.021 | [3] -0.018 | [4] 0.004 | [5] 0.014 | [6] 0.06 | [7] -0.084 | [8] 0.071 | [9] -0.021 | [10] 0.017 | [11] -0.021 | [12] 0.016 | [13] 0.005 | [14] 0.029 | [15] 0.02 | [16] -0.004 | [17] 0.039 | [18] -0.001 | [19] -0.027 | [20] 0.022

RTN3 (UniProt O95197)
inactive: [1] -0.008 | [2] -0.028 | [3] 0.003 | [4] 0.014 | [5] 0.006 | [6] 0.002 | [7] -0.182 | [8] 0.059 | [9] 0.035 | [10] -0.035 | [11] -0.057 | [12] 0.037 | [13] 0.006 | [14] -0.019 | [15] 0.046 | [16] 0.018 | [17] -0.034 | [18] 0.008 | [19] 0.001 | [20] -0.013

RTN2 (UniProt O75298)
inactive: [1] -0.092 | [2] -0.055 | [3] 0.074 | [4] 0.032 | [5] 0.014 | [6] 0.085 | [7] -0.02 | [8] 0.03 | [9] 0.017 | [10] 0.01 | [11] -0.045 | [12] 0 | [13] 0.006 | [14] 0.042 | [15] -0.075 | [16] 0.047 | [17] -0.044 | [18] 0.027 | [19] -0.105 | [20] 0.042

RPL38 (UniProt P63173)
inactive: [1] 0.006 | [2] -0.019 | [3] -0.034 | [4] 0.029 | [5] 0.027 | [6] 0.003 | [7] 0.006 | [8] -0.074 | [9] -0.01 | [10] 0.04 | [11] 0.008 | [12] 0.016 | [13] -0.029 | [14] -0.011 | [15] 0.037 | [16] -0.013 | [17] 0.044 | [18] 0.045 | [19] 0.002 | [20] 0.02

RPS15 (UniProt P62841)
inactive: [1] 0.041 | [2] 0.02 | [3] -0.03 | [4] 0.052 | [5] -0.006 | [6] -0.042 | [7] -0.179 | [8] 0.157 | [9] 0.001 | [10] 0.053 | [11] -0.049 | [12] 0.023 | [13] 0.008 | [14] 0.017 | [15] 0.035 | [16] -0.024 | [17] 0.025 | [18] 0.015 | [19] -0.008 | [20] 0.002

RSBN1 (UniProt Q5VWQ0)
inactive: [1] 0.15 | [2] 0.161 | [3] 0.002 | [4] 0.026 | [5] 0.02 | [6] -0.047 | [7] 0 | [8] 0.03 | [9] 0.006 | [10] -0.034 | [11] 0.043 | [12] -0.052 | [13] 0.041 | [14] -0.02 | [15] 0.04 | [16] 0.074 | [17] 0.032 | [18] -0.069 | [19] -0.019 | [20] 0.02

RRP15 (UniProt Q9Y3B9)
inactive: [1] 0.05 | [2] 0.033 | [3] -0.057 | [4] 0.065 | [5] 0.023 | [6] 0.037 | [7] -0.011 | [8] 0.057 | [9] 0.002 | [10] 0.003 | [11] 0.018 | [12] -0.042 | [13] 0.039 | [14] 0.029 | [15] -0.001 | [16] 0.033 | [17] -0.085 | [18] 0.023 | [19] -0.018 | [20] 0.024

RPS11 (UniProt P62280)
inactive: [1] -0.014 | [2] -0.019 | [3] -0.019 | [4] -0.036 | [5] 0.001 | [6] 0.01 | [7] 0.044 | [8] -0.087 | [9] -0.056 | [10] -0.016 | [11] 0.043 | [12] -0.001 | [13] -0.011 | [14] -0.004 | [15] 0 | [16] -0.041 | [17] 0.062 | [18] 0.001 | [19] 0.011 | [20] -0.022

RPS7 (UniProt P62081)
inactive: [1] -0.031 | [2] -0.005 | [3] -0.039 | [4] 0.026 | [5] -0.028 | [6] -0.025 | [7] 0.295 | [8] -0.145 | [9] -0.003 | [10] -0.014 | [11] 0.099 | [12] 0.021 | [13] -0.014 | [14] 0.023 | [15] 0 | [16] -0.028 | [17] 0.028 | [18] -0.039 | [19] -0.011 | [20] -0.026

RPS4X (UniProt P62701)
inactive: [1] 0.001 | [2] -0.014 | [3] -0.033 | [4] 0.001 | [5] -0.007 | [6] -0.025 | [8] -0.059 | [9] -0.016 | [10] -0.009 | [11] 0.039 | [12] 0.032 | [13] -0.03 | [14] -0.027 | [15] 0.029 | [16] -0.036 | [17] 0.063 | [18] 0.004 | [19] 0.002 | [20] -0.028
active: [7] 0.242

RPN2 (UniProt P04844)
inactive: [1] 0.009 | [2] 0.008 | [3] 0.019 | [4] 0 | [5] 0.003 | [6] -0.003 | [7] -0.084 | [8] 0.033 | [9] 0.008 | [10] 0.008 | [11] -0.024 | [12] 0.001 | [13] -0.024 | [14] -0.006 | [15] -0.01 | [16] 0.041 | [17] -0.031 | [18] -0.008 | [19] -0.03 | [20] 0.011

RRP9 (UniProt O43818)
inactive: [1] -0.052 | [2] 0.042 | [3] -0.038 | [4] -0.114 | [5] 0.03 | [6] 0.029 | [7] -0.111 | [8] 0.098 | [9] 0.069 | [10] 0.019 | [11] -0.018 | [12] 0.103 | [13] -0.012 | [14] -0.06 | [15] -0.193 | [16] -0.05 | [17] 0.106 | [18] 0.024 | [19] -0.007 | [20] -0.026

RPS24 isoform 4 (UniProt P62847)
inactive: [1] -0.016 | [2] -0.002 | [3] -0.013 | [4] 0.021 | [5] 0.002 | [6] 0.006 | [7] 0.014 | [8] 0.002 | [9] 0.013 | [10] -0.007 | [11] -0.002 | [12] -0.002 | [13] -0.008 | [14] -0.006 | [15] -0.009 | [16] -0.009 | [17] 0.047 | [18] -0.004 | [19] -0.027 | [20] -0.017
